Source: article doi:10.1101/2024.02.29.582672
Results are given in words; binding and its absence hold for the method and conditions named. In cells and extracts the contact can be indirect.

The chains behind the UniProt entries cited, without tags or fusion partners.
UniProt Q2HR95: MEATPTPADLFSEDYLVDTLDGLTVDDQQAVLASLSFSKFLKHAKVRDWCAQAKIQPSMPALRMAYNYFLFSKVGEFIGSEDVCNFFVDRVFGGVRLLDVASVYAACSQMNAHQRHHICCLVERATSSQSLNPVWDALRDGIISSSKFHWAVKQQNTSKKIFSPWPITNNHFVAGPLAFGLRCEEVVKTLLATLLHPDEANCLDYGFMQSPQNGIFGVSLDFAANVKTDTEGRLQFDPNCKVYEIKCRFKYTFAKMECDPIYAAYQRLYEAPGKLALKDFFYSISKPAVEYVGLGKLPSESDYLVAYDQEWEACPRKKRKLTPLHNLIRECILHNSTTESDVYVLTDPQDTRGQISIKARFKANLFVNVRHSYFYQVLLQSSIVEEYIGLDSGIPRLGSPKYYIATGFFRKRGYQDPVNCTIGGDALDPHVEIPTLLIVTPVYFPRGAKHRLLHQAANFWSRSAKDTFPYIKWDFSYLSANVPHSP
UniProt Q86WV6: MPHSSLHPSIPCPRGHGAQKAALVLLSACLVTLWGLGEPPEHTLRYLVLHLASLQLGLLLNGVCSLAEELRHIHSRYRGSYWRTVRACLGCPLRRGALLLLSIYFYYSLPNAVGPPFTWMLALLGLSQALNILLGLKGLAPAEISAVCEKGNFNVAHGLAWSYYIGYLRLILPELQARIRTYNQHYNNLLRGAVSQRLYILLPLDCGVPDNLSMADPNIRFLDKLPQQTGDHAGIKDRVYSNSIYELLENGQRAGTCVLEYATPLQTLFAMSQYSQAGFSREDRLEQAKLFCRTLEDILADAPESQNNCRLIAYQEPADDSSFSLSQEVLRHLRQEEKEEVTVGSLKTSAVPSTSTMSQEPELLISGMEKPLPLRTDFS

Molecular target: KSHV ORF37, STREP-tagged (pCDNA4.TO-ORF37-2xCSTREP) (Kaposi's sarcoma-associated herpesvirus (KSHV)) (UniProt Q2HR95)
Test: co-IP; HEK293T cells transfected with HA-STING and empty backbone, STREP-ORF37 or STREP-ORF48; 48 h later lysates immunoprecipitated with STREP antibody and protein A/G beads; blots with HA or STREP antibodies

## HA-STING (stimulator of interferon genes) (from UniProt Q86WV6 1-379)
  binding: no binding
